Test results from patent US8227506B2, “Benzamidine compound” (Ajinomoto., Inc., priority 2005, dated 2012).
At least one compound was matched to its structure with a doubt left.

Tests used:
human plasma = test: Determination of anticoagulant activity (aPTT measurement method); details: negative logarithm of the concentration prolonging the aPTT of the control to two-fold
Procedure: Determination of Anticoagulant Activity
The aPTT measurement method using an automatic blood coagulation time measuring device, Sysmex CA-3000 (TOA Medical Electronics Co., Ltd.) was performed. A solution (5 μl) of the test compound was placed in a sample tube (SU-40, TOA Medical Electronics Co., Ltd.), human plasma (hemolyance coagulation control I, iatron Laboratory, 45 μl) was added and the mixture was incubated at 37° C. for 3 minutes. To the plasma solution were added dataphay•APTT (rabbit brain-derived cephalin, DADE Behring Co., Ltd., 50 μl) and 0.02 M calcium chloride (50 μl), and the time up to the coagulation of plasma was automatically measured. The anticoagulation activity is shown as the negative logarithm of the concentration prolonging the aPTT of the control to two-fold (paPTT2).

dog dialysis model = test: Evaluation of dog dialysis model; type: in vivo, dog (Beagles); details: continuous administration into the arterial blood circuit, 5 mg/hour and 15 mg/hour, N=5 (FIG. 1)
Procedure: Evaluation of Dog Dialysis Model
Beagles (♂, 11 kg-15 kg, Nosan Corp., Japan) were anesthetized with pentobarbital (30 mg/kg, Tokyo Chemical Industry Co., Ltd.) by intravenous administration from the cephalic vein of the forefoot. A tracheostomy tube was inserted and artificial breathing was started. Placing needles [14G (serflow placing needle, Termo Corp.), 16G (happycath, Medikit Co., Led), 18G (serflow placing needle, Termo Corp.)] were punctured into the left femoral vein, right femoral artery, and right cephalic vein of the forefoot, respectively, and an outer shunt (Senko Medical Instrument Mfg. CO., Ltd.) filled with saline was set to the femoral vein and artery. For hemodialysis, a hemodialysis device for one person (DBG-01, Nikkiso Co., Ltd.), a hollow fiber dialyzer (FB-50, triacetate (CTA) film, Nipro Corp.) and sodium bicarbonate dialysate (AK-sorita•DL, Shimizu Corp.) were used.
The experiment was performed under the conditions of blood flow 80 ml/minute, dialysate flow 300 ml/minute, water removal amount 0 ml/minute. During dialysis, pentobarbital (12 mg/kg/hour) was continuously administered from the cephalic vein of the forefoot to maintain anesthesia. The control and test compounds were continuously administered into the arterial blood circuit (B) at 5 ml/hour. […]

| Compound | paPTT2 (human plasma) | increase in the arterial circuit pressure (antithrombus action) (dog dialysis model) |
| --- | --- | --- |
| N=C(N)c1cccc(OCCOC(=O)c2ccc(OC3CCN(C(=N)N)CC3)cc2)c1 [Ex. 17, 2-{3-amidinophenoxy}ethyl 4-({1-amidinopiperidin-4-yl}oxy)benzoate ditrifluoroacetate] | 5.1 | – |
| CC(=O)Oc1ccc(C(=N)N)cc1OCCOC(=O)c1ccc(C(=N)N2CCCC2)cc1 [Ex. 28, 2-{2-(acetoxy)-5-amidinophenoxy}ethyl 4-[imino(pyrrolidin-1-yl)methyl]benzoate ditrifluoroacetate] | 6.4 | – |
| N#CCOc1ccc(C(=N)N)cc1OCCOC(=O)c1ccc(C(=N)N2CCCC2)cc1 [Ex. 20, 2-[5-amidino-2-(cyanomethoxy)phenoxy]ethyl 4-[imino(pyrrolidin-1-yl)methyl]benzoate ditrifluoroacetate] | 6.1 | suppressed an increase in the arterial circuit pressure |
| CC(C)COc1ccc(C(=N)N)cc1OCCOC(=O)c1ccc(C(=N)N2CCCC2)cc1 [Ex. 24, 2-{5-amidino-2-isobutoxyphenoxy}ethyl 4-[imino(pyrrolidin-1-yl)methyl]benzoate ditrifluoroacetate] | 5.8 | – |
